# PubChem BioAssay AID1259290 | Sanger Institute – 2017
# Test: 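siRNA screen across the kinome seeking synthetic lethal partners for BYL719, cetuximab or trametinib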 (primary screen)
# Cells: human SNUC1 colorectal cancer cells
# Reagent: siRNA pool against human genes
# Challenge: anchor drugs BYL719 1 µM, cetuximab 5 µg/ml or trametinib 10 nM, or DMSO vehicle alone
# Measured: 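Viability averaged over replicates and scaled to non-targeting siRNA, robust z-score with no drug, and synergy scores by drug for BYL719, cetuximab and trametinib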
# Scale: viability z-score, siRNA alone: higher = more viable cells; low values mean essential gene; viability vs control, siRNA alone: higher = more viable cells; synergy score with BYL719 and synergy score with Cetuximab: higher = stronger synthetic lethal effect with drug
# Call rule: 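a knock-down without drug scoring a robust z under -3 counts as essential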
# Meaning of the calls: active = essential: knock-down alone cut viability (z below -3); inactive = no clear viability loss with knock-down alone
# In all, the deposit lists 794 reagents; this is a part drawn at random. 9 of all reagents (1.1%) were called active. 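Calls rest on knock-down alone, not drug synergy; synergy above 0.15 was grouped apart and does not affect calls.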 Unmarked entries are inactive. Viability is capped at 1. Not all columns of the deposit are shown. The record does not give: the amount of reagent, the time to read-out.
The first 5 entries, ahead of the listing:
Target gene,"viability z-score, siRNA alone","viability vs control, siRNA alone",synergy score with BYL719,synergy score with Cetuximab
COQ8B,0.936,1,-0.112,-0.0447
TPK1,0.936,1,0.135,0.14
TYRO3,0.936,1,-0.0789,-0.0447
RUNX1,-1.42,0.788,-0.19,0.00899
DGKQ,-0.277,0.891,-0.268,0.0293

The listing, repeating the preview:
Target gene,"viability z-score, siRNA alone","viability vs control, siRNA alone",synergy score with BYL719,synergy score with Cetuximab
COQ8B,0.936,1,-0.112,-0.0447
TPK1,0.936,1,0.135,0.14
TYRO3,0.936,1,-0.0789,-0.0447
RUNX1,-1.42,0.788,-0.19,0.00899
DGKQ,-0.277,0.891,-0.268,0.0293
TSSK1B,-0.802,0.843,-0.0593,0.00904
ALDH18A1,-1.2,0.808,-0.193,-0.0363
VRK2,-0.978,0.828,-0.097,-0.00921
SGK2,0.936,1,-0.101,-0.0447
TRIB1,0.936,1,-0.0874,-0.0447
MAP3K7,0.405,0.952,-0.237,-0.0353
CUL1,-0.525,0.868,0.0427,-0.0195
EPHA8,0.809,0.988,-0.128,-0.0256
MAPK11,-1.49,0.782,-0.0639,0.042
CDK18,0.936,1,-0.115,-0.0447
MKNK2,0.536,0.964,-0.0633,0.294
NME3,-1.91,0.743,-0.139,-0.0404
STK38L,-1.16,0.812,-0.0226,-0.0569
RTN4,0.936,1,-0.0923,-0.0447
NRK,0.936,1,-0.198,-0.0447
MATK,-0.743,0.849,-0.319,-0.0754
MAPKAPK5,0.936,1,0.0181,-0.0447
PRKCG,0.936,1,-0.087,0.0556
TP53BP1,-0.548,0.866,-0.305,0.0551
CSK,-0.746,0.848,-0.171,-0.0252
TESK1,-0.0688,0.909,0.0154,0.0206
TAF1,-0.476,0.873,-0.251,0.0176
MAP4K3,-0.0772,0.909,0.014,-0.0503
IPMK,0.885,0.995,-0.202,0.0855
PIKFYVE,0.719,0.98,-0.0414,0.0726
CMPK1,0.484,0.959,-0.12,-0.0772
TBCK,0.516,0.962,-0.134,0.0642
NTRK2,-0.404,0.879,-0.135,-0.0184
PBK,-0.462,0.874,-0.084,0.132
TWF2,0.111,0.926,-0.195,-0.0774
DYRK1A,0.936,1,-0.127,0.00524
NR2F2,-0.646,0.857,0.0478,-0.034
PIP4K2B,0.936,1,-0.198,-0.0447
LRRK1,0.936,1,0.0566,0.00702
PRKAB1,-2.96,0.649,-0.123,0.0446
PRPS1L1,0.731,0.982,-0.118,-0.0299
PDGFRB,-0.746,0.849,-0.291,-0.0492
RIPK3,-0.985,0.827,-0.0571,0.0534
SRC,-1.7,0.763,-0.269,-0.0244
KRAS,0.00802,0.916,-0.218,0.00891
CSNK1D,0.936,1,0.0118,-0.00558
FGR,0.171,0.931,-0.0447,0.104
NF1,0.264,0.939,-0.154,-0.103
DLG4,0.936,1,-0.0772,-0.0447
PASK,0.936,1,0.0173,-0.0447
